Values joined by “and” are separate entries in the source; they are usually repeats but may differ in a detail not shown here. Equal entries are not always repeated. This is one part of the list. Some salts and complexes are drawn in separate pieces, as the source files them; their charges need not balance.
Experiments:
[1] = qHTS assay for small molecule agonists of retinoid X receptor alpha signaling (AID 588544); settings: HEK293T RXRa-UAS-bla, beta-lactamase reporter, 18 h; 530 nm emission
[2] = biological target: Catechol O-methyltransferase (Homo sapiens) (UniProt P21964); experiment: Confirmatory Screen for Target Class Profiling of Small Molecule Inhibitors of Methyltransferases (AID 1745852); settings: MTase-Glo luminescence, SAH detection, recombinant enzyme; measured here: COMT max response; stronger effect = lower value
[3] = biological target: Nicotinamide N-methyltransferase (Homo sapiens) (UniProt P40261); experiment: as above; settings: MTase-Glo luminescence, SAH detection, recombinant enzyme; measured here: NNMT max response; stronger effect = lower value
[4] = biological target: Phenylethanolamine N-methyltransferase (Homo sapiens) (UniProt P11086); experiment: as above; settings: MTase-Glo luminescence, SAH detection, recombinant enzyme; measured here: PNMT max response; stronger effect = lower value
[5] = qHTS assay for small molecule antagonists of peroxisome proliferator-activated receptor delta signaling (AID 588535); settings: HEK293T PPARd-UAS-bla, beta-lactamase FRET ratio, 18 h; 460 nm channel;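 further: cells co-treated with a PPAR-delta agonist as stimulator during compound exposure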
[6] = Nrf2 qHTS screen for inhibitors: Validation (AID 493153); settings: A549 ARE-Fluc reporter, 18-24 h; measured here: cytotoxicity max response
In short: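 Dose-response validation uses reporter A549 cells with firefly luciferase under an antioxidant response element. Compounds stay on cells 18-24 h at 37°C, and luminescence indicates Nrf2-driven transcription.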

Amino acid sequences for entries named in this document (tags omitted).
UniProt P21964, whole entry: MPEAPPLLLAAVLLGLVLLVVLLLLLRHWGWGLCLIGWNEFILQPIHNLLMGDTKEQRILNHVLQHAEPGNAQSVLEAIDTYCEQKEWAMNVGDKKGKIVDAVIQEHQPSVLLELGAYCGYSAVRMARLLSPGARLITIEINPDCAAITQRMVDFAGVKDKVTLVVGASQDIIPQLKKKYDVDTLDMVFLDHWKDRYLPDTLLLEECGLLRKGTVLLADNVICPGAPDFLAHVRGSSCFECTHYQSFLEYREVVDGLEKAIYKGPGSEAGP
UniProt P40261, whole entry: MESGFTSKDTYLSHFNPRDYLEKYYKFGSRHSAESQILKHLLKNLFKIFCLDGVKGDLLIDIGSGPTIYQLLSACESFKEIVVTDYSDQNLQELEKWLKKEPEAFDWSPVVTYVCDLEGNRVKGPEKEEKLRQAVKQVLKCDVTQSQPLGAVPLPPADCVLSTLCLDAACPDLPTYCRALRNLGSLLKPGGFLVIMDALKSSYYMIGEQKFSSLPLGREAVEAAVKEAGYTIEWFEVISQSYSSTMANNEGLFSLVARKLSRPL
UniProt P11086, whole entry: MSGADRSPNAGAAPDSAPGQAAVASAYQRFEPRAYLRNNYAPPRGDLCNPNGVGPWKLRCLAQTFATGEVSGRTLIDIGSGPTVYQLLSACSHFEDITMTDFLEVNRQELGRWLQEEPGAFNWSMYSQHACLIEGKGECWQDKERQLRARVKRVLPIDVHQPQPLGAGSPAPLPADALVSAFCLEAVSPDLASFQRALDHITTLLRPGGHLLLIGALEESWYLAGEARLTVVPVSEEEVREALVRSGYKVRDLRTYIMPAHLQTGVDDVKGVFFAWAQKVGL

[7] = qHTS drug screen for cell cycle checkpoint inhibitors in PARPi-resistant BRCA-mutant ovarian cancer cell lines. (AID 1963452); settings: PEO1/OlaR viability, CellTiter-Glo luminescence, 96 h, stronger effect = lower value
In short: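 PEO1, PEO4 and PEO1/OlaR ovarian cancer cells, 600 per well, exposed 96 h at 37C to a dilution series. Viability read by CellTiter-Glo luminescence, normalized to DMSO and empty wells; activity summarized as Z-AUC.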

[8] = qHTS Assay for Lipid Storage Modulators (AID 1519); settings: Drosophila S3 cells, BODIPY lipid droplet/cell ratio, laser cytometry, cells loaded with oleic acid
[9] = measured here: PEO1 parental Z-AUC
[10] = measured here: cell count channel max response
[11] = measured here: lipid channel max response

Question: With Cc1ccc([N+](=O)[O-])cc1[N+](=O)[O-] as the molecule, how does the max response [1] read?
Answer: -12.2% and -15.7%

Question: For C/C1=C2N=C(/C=C3N=C(/C(C)=C4\N=C(C(CC(N)=O)C4(C)CCC(=O)NCC(C)OP(=O)([O-])OC4C(CO)OC(n5cnc6cc(C)c(C)cc65)C4O)C4(C)N=C1C(CCC(N)=O)C4(C)CC(N)=O)C(CCC(N)=O)C\3(C)C)C(CCC(N)=O)C/2(C)CC(N)=O.[C-]#N.[Co] (centres undefined), which activity [2] is on record?
Answer: -30.2%

Question: And the activity [3]?
Answer: -25.9%

Question: And the activity [4]?
Answer: -28.1%

Question: With Cc1c([N+](=O)[O-])cccc1[N+](=O)[O-] as the molecule, how does the max response [1] read?
Answer: -2.92% and -22.6%

Question: Which max response [5] does the source give for O=[N+]([O-])c1cccc([N+](=O)[O-])c1 here?
Answer: 42.4% and -6.4%

Question: And the max response [1]?
Answer: -9.49%

Question: Which max response [5] does the source give for Cc1cccc([N+](=O)[O-])c1[N+](=O)[O-] here?
Answer: 22.5% and -8.95%

Question: What about the max response [1] of the same molecule?
Answer: -9.27%

Question: Which max response [1] does the source give for Cc1ccc([N+](=O)[O-])c([N+](=O)[O-])c1 here?
Answer: 3.74% and 22.4%

Question: Which results are given for CN(C(=O)Cc1ccc(Cl)c(Cl)c1)[C@H]1CCCC[C@H]1N1CCCC1?
Answer: activity [2]: -2.88%; activity [3]: 0.547%; activity [4]: 0.274%

Question: With CN(C(=O)Cc1ccc(Cl)c(Cl)c1)[C@H]1CCCC[C@@H]1N1CCCC1 as the molecule, how does the viability change [6] read?
Answer: 2.46% and -4.32%

Question: For CCC(C)(OO)OOC(C)(CC)OO (centres undefined), which max response [5] is on record?
Answer: -22.2%

Question: What about the max response [1] of the same molecule?
Answer: -14.1% and -2.15%

Question: With O=[N+]([O-])c1ccc([N+](=O)[O-])cc1 as the molecule, how does the max response [5] read?
Answer: -0.128%

Question: For CCOP(=S)(CC)Oc1cc(Cl)c(Cl)cc1Cl (centres undefined), which max response [5] is on record?
Answer: -22.5%

Question: What about the max response [1] of the same molecule?
Answer: -7.84%

Question: Which max response [5] does the source give for Cc1cc([N+](=O)[O-])cc([N+](=O)[O-])c1O here?
Answer: -0.203%

Question: What about the max response [1] of the same molecule?
Answer: 13.7%

Question: With CCOP(=O)(CC)OCC as the molecule, how does the max response [1] read?
Answer: -24.1%

Question: For [NH4+].[O-][Cl+3]([O-])([O-])[O-], which max response [1] is on record?
Answer: -9.29%

Question: Which Z-AUC [7, 9] does the source give for C/C1=C2/N=C(C(CC(N)=O)C2(C)CCC(=O)NCC(C)OP(=O)([O-])OC2C(CO)OC(n3cnc4cc(C)c(C)cc43)C2O)C2(C)N=C(/C(C)=C3N=C(/C=C4N=C1C(CCC(N)=O)C\4(C)C)C(CCC(N)=O)C/3(C)CC(N)=O)C(CCC(N)=O)C2(C)CC(N)=O.[C-]#N.[Co] (centres undefined) here?
Answer: 1.41

Question: And the Z-AUC ([7]; measured here: PEO4 Z-AUC)?
Answer: 1.25

Question: For CC(C)OP(=O)(OC(C)C)SCCNS(=O)(=O)c1ccccc1, which max response [1] is on record?
Answer: 21.8%

Question: Which Z-AUC [7, 9] does the source give for CN(C)C1(c2ccccc2)CCC2(CC1)OCCc1c2[nH]c2ccc(F)cc12 (centres undefined) here?
Answer: 0.0539

Question: And the Z-AUC ([7]; measured here: PEO4 Z-AUC)?
Answer: 0.31

Question: Which max response [8, 10] does the source give for CN(C(=O)Cc1ccccc1)[C@@H]1CC[C@]2(CCCO2)C[C@H]1N1CCCC1 here?
Answer: 15.6%

Question: What about the max response [8, 11] of the same molecule?
Answer: 19.2%

Question: And the viability change [6]?
Answer: -5.32%

Question: For NC(=O)Nc1ccc([As](=O)(O)O)cc1, which max response [5] is on record?
Answer: -22.8%

Question: With CN(N=O)C(=N)N[N+](=O)[O-] as the molecule, how does the max response [1] read?
Answer: 11.2%

Question: With CCN(CCCl)Cc1ccccc1C as the molecule, how does the max response [8, 10] read?
Answer: 18.3%

Question: What about the max response [8, 11] of the same molecule?
Answer: 27.3%

Question: For ClP(Cl)c1ccccc1, which max response [5] is on record?
Answer: 9.53%

Question: What about the max response [1] of the same molecule?
Answer: -9.19%

Question: Which results are given for OCCSCCO?
Answer: max response [8, 10]: 10.6%; max response [8, 11]: 15.7%

Question: Which results are given for N[C@@H](Cc1ccc([N+]([O-])(CCCl)CCCl)cc1)C(=O)O?
Answer: activity [2]: 6.9%; activity [3]: -33.8%; activity [4]: 5.12%; Z-AUC [7, 9]: 0.112; Z-AUC ([7]; measured here: PEO4 Z-AUC): 0.117

Question: What does the source list for C/C1=C2N=C(/C=C3N=C(/C(C)=C4\[N-][C@@](C)([C@H]5N=C1[C@@](C)(CCC(=O)NC[C@H](C)OP(=O)([O-])O[C@@H]1[C@H](O)[C@H](n6cnc7cc(C)c(C)cc76)O[C@@H]1CO)[C@@H]5CC(N)=O)[C@](C)(CC(N)=O)[C@H]4CCC(N)=O)[C@@](C)(CC(N)=O)[C@@H]\3CCC(N)=O)C(C)(C)[C@@H]/2CCC(N)=O.[C-]#N.[Co+3]?
Answer: max response [8, 10]: 9.91%; max response [8, 11]: 12.3%

Question: For CN(C(=O)Cc1ccc(Cl)c(Cl)c1)[C@@H]1CC[C@]2(CCCO2)C[C@H]1N1CCCC1, which max response [8, 10] is on record?
Answer: -33%

Question: And the max response [8, 11]?
Answer: -30.6%

Question: And the viability change [6]?
Answer: -7.62%

Question: Which results are given for CN(C(=O)Cc1ccc(Cl)c(Cl)c1)[C@@H]1CCCC[C@@H]1N1CCCC1?
Answer: viability change [6]: -3.07%; activity [2]: 4.03%; activity [3]: 0.599%; activity [4]: 6.42%

Question: For O=[N+]([O-])[O-].[NH4+], which max response [1] is on record?
Answer: -9.95%

Question: With N#[O+].[C-]#N.[C-]#N.[C-]#N.[C-]#N.[C-]#N.[Fe+2].[Na+].[Na+] as the molecule, how does the max response [8, 10] read?
Answer: -17.1%

Question: And the max response [8, 11]?
Answer: -18.4%

Question: What about the viability change [6] of the same molecule?
Answer: -16%

Question: Which Z-AUC [7, 9] does the source give for CCn1c(=O)n([C@@H]2CCN(CC3CCCCCCC3)C[C@H]2CO)c2ccccc21 here?
Answer: -0.399

Question: What about the Z-AUC ([7]; measured here: PEO4 Z-AUC) of the same molecule?
Answer: 0.46
